{"source": "patent US20100323975A1", "about": "“THERAPEUTIC AGENT FOR CEREBRAL ISCHEMIC INJURY” (OTSUKA PHARMACEUTICAL FACTORY, INC., priority 2007, published 2010)", "note": "Some entries share one result that the patent states for a list of compounds. For at least one compound, name, drawing or mass did not settle the structure. Peptide text beside a SMILES is read from it.", "data": [{"experiment": "Determination of solubility of L-histidine dipeptides in solvent, injection solutions pH 6 to 7 (Test Example 3)", "format": "physicochemical", "conditions": "injection solutions having pH 6 to 7; 0.3 mol/L = L-histidine concentration 4.67% (W/V)", "units": {"Concentration at which the dipeptide could be dissolved": "mol/L"}, "values": [{"compound": "N[C@@H](Cc1c[nH]cn1)C(=O)N[C@@H](CO)C(=O)O", "note": "[L-histidyl-L-serine] (H-His-Ser-OH)", "Concentration at which the dipeptide could be dissolved": "< 0.3"}, {"compound": "N[C@@H](Cc1cnc[nH]1)C(=O)NCC(=O)O", "note": "[L-histidyl-L-glycine] (H-His-Gly-OH)", "Concentration at which the dipeptide could be dissolved": "< 0.3"}, {"compound": "N[C@@H](Cc1c[nH]cn1)C(=O)N[C@@H](CCC(=O)O)C(=O)O", "note": "[L-histidyl-L-glutamic acid] (H-His-Glu-OH)", "Concentration at which the dipeptide could be dissolved": "< 0.3"}, {"compound": "N[C@@H](Cc1c[nH]cn1)C(=O)N1CCC[C@H]1C(=O)O", "note": "[L-histidyl-L-proline]", "Concentration at which the dipeptide could be dissolved": "< 0.3"}, {"compound": "N[C@@H](CCC(=O)O)C(=O)N[C@@H](Cc1c[nH]cn1)C(=O)O", "note": "[L-glutamyl-L-histidine] (H-Glu-His-OH)", "Concentration at which the dipeptide could be dissolved": "< 0.3"}, {"compound": "CC(C)C[C@H](NC(=O)[C@@H](N)Cc1c[nH]cn1)C(=O)O", "note": "[L-histidyl-L-leucine] (H-His-Leu-OH)", "Concentration at which the dipeptide could be dissolved": "< 0.3"}, {"compound": "CSCC[C@H](NC(=O)[C@@H](N)Cc1c[nH]cn1)C(=O)O", "note": "[L-histidyl-L-methionine] (H-His-Met-OH)", "Concentration at which the dipeptide could be dissolved": "< 0.3"}]}]}
